No constants are given. Whether binding was seen depends on the method and setting. Some binding calls cover weakened binding; strength is not graded here.
Assays:
GATA4 (mouse) = GATA4 (mouse) (UniProt Q08369); experiment: two-hybrid; liquid yeast two-hybrid in S. cerevisiae; pGADT7 Gal4 activation domain-Nkx2-5 (WT or variant) co-transformed with pGBKT7 Gal4 DNA-binding domain-TF (NKX2-5, GATA4, TBX5, TBX20b or HAND1); high stringency liquid medium (-Ade/-His/-Leu/Trp), 30°C, FDG fluorescence at two time-points, T2 normalised to T1; N188K with HAND1 followed out to day 5
HAND1 (mouse) = target: T1, HAND1 (mouse) (UniProt Q64279); experiment: as above
T1 sequence: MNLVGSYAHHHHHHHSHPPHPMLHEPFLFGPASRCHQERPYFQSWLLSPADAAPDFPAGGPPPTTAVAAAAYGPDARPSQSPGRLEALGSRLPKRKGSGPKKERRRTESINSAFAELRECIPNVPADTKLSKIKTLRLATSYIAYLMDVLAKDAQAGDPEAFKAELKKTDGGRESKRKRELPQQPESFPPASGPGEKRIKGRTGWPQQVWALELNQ

Protein sequences, listed by entry. Tags and fused reporters are not part of them.
UniProt Q08369: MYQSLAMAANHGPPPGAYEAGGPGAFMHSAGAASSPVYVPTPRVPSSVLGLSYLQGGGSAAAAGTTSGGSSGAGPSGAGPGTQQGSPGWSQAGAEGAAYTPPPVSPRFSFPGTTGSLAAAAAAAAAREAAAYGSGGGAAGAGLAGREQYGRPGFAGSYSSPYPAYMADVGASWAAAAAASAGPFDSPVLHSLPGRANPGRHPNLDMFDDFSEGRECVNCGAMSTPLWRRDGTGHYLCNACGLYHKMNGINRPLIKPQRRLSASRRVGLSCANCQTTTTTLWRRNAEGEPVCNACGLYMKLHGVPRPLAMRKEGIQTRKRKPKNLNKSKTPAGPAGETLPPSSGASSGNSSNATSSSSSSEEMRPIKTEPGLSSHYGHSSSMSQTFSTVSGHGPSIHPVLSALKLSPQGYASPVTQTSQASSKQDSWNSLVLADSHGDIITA
UniProt P42582: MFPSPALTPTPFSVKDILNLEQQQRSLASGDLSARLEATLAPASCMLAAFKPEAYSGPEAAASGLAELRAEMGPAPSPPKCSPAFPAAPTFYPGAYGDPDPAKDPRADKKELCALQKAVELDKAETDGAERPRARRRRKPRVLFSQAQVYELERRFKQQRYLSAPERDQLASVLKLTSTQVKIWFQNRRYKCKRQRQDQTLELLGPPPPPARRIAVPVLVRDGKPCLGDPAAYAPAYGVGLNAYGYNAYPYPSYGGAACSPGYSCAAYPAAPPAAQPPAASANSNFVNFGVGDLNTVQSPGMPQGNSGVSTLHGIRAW

Substance: NKX2-5 wild type (from UniProt P42582 1-318)
- binding (GATA4 (mouse)): binds
- binding (HAND1 (mouse)): binds
